No constants are given. Whether binding was seen depends on the method and setting. In cells and extracts the contact can be indirect. Here binding means that the protein was enriched with, or labelled near, the bait; the list need not be complete. A no says only that the protein was not detected with the bait. Sequences can lack the tags named with a protein.
Target: T1, recombinant His-tagged Endocan (UniProt Q9NQ30)
T1 sequence: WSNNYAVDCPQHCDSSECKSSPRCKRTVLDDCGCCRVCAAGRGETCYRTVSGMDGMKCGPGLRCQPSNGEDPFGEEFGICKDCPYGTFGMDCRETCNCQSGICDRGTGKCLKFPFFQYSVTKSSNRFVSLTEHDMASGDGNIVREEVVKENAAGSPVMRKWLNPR
Assay: affinity purification with mass spectrometry; His-tagged Endocan immobilised on HisPur Ni-NTA magnetic beads, incubated with plasma membrane proteins of gliomasphere cells solubilised in 50 mM Tris-HCl, 150 mM NaCl, 1% Triton X100, 0.1% sodium deoxycholate, pH 7.5; eluted with 8 M urea, 2 M …; LC-MS/MS; only the target purified

Sequences of proteins named here, by UniProt entry; tags and fusion partners are left off. Residues count along the entry.
UniProt P20701, residues 26-1170: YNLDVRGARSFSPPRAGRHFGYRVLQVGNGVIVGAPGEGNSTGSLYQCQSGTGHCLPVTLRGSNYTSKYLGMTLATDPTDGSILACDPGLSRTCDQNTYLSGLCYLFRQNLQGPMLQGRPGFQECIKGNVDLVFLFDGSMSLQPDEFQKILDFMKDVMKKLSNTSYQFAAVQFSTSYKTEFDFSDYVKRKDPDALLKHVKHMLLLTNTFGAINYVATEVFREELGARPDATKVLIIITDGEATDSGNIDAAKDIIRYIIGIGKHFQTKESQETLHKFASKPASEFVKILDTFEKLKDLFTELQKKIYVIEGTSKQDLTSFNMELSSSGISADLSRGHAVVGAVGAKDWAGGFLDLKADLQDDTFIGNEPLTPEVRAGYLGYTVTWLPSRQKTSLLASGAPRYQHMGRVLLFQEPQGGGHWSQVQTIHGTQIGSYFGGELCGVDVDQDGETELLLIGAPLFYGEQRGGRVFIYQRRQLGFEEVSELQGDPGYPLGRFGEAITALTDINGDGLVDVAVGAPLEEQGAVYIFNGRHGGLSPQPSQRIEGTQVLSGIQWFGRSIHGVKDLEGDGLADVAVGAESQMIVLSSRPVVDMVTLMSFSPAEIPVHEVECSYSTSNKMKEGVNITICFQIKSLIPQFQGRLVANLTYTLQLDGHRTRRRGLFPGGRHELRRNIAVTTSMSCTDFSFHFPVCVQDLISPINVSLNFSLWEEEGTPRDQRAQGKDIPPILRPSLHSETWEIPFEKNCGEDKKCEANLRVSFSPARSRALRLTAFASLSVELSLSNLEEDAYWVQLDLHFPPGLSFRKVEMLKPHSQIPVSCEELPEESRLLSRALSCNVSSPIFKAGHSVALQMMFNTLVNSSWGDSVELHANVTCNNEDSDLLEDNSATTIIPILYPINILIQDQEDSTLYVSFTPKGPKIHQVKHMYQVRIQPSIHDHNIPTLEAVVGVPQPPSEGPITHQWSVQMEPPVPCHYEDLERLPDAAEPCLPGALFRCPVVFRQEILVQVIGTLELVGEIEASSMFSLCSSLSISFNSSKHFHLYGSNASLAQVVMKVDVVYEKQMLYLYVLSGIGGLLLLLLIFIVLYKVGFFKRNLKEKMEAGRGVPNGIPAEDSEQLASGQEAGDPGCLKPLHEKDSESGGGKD
UniProt P16234, residues 24-1089: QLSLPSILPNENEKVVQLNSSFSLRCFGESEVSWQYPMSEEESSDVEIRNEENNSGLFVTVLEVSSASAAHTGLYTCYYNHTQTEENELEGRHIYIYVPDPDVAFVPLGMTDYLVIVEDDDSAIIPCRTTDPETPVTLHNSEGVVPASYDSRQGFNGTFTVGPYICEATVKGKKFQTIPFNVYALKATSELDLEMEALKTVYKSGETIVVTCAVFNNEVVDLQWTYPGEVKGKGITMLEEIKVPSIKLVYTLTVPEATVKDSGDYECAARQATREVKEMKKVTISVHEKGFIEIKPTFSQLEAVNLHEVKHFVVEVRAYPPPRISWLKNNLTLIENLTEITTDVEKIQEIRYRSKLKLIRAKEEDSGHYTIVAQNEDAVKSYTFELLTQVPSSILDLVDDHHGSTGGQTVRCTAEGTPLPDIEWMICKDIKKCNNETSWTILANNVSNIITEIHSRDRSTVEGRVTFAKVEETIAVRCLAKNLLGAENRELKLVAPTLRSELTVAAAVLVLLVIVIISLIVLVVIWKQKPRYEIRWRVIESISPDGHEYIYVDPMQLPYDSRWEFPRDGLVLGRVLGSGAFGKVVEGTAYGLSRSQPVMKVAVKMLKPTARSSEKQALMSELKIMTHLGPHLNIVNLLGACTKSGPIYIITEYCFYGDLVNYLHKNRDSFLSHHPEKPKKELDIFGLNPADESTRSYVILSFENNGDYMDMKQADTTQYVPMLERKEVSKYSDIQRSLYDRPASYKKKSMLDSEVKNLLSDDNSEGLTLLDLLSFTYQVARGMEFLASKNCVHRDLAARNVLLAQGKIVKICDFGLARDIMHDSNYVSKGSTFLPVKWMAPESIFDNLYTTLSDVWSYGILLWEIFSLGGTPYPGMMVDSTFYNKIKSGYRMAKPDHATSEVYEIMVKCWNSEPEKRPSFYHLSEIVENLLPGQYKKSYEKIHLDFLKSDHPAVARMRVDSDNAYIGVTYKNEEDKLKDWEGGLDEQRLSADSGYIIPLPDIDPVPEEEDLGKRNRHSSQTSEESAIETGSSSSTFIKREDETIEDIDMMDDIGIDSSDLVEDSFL

CD11a integrin, endogenous, in the membrane protein fraction of human gliomasphere cells (from UniProt P20701 26-1170) (receptor)
binding: no binding

PDGFRA, endogenous, in the integral membrane protein fraction of human gliomasphere cells (from UniProt P16234 24-1089) (receptor)
binding: binds
